# In US20080064736A1, “Substituted 2-Pyrrolidone Derivatives as Fungicides and Insecticides” (Bayer Cropscience AG, priority 2004, published 2008):
# Some of these results come from one statement about several compounds together.
# Tested on: Phytophthora infestans
# Assay type: cell-based
# Conditions: microtitre plate, liquid potato dextrose medium, 3-5 days, extinction at 620 nm
row,SMILES,ED50 value (50% growth inhibition)
1,"CCCCCC[C@H]1C(=O)N[C@@]2([C@@H](O)[C@@H]3C=CCCC3)C(=O)O[C@@]12C [Example 1, (1R,4R,5S)-1-[(S)-(1S)-2-cyclohexen-1-yl(hydroxy)methyl]-4-hexyl-5-methyl-6-oxa-2-azabicyclo[3.2.0]heptane-3,7-dione]","less than 0,05 ppm"
2,"CCCCCC[C@H]1C(=O)N[C@@]2(C[C@@H]3C=CCCC3)C(=O)O[C@@]12C [Example 3, (1R,4R,5S)-1-[(1R)-2-cyclohexen-1-ylmethyl]-4-hexyl-5-methyl-6-oxa-2-aza-bicyclo[3.2.0]heptane-3,7-dione]","less than 0,05 ppm"
3,"CCCCCC(O)[C@H]1C(=O)N[C@](C(=O)O)(C(O)[C@@H]2C=CCCC2)[C@@]1(C)O (stereo partly drawn) [Example 4, (3S,4R)-2-[(S)-(1S)-2-cyclohexen-1-yl(hydroxy)methyl]-3-hydroxy-4-[1-hydroxy-hexyl]-3-methyl-5-oxo-D-proline]","less than 0,05 ppm"
